Assay results: patent US20130243743A1 (ACCELERON PHARMA, published 2013)
These are yes or no findings as the source states them, for the method shown. Some results given as binding are weak or reduced against the parent protein; the word gives no strength.

Target: T1, Growth and Differentiation Factor-11 (GDF11) (UniProt O95390 299-407)
T1 sequence (looked up): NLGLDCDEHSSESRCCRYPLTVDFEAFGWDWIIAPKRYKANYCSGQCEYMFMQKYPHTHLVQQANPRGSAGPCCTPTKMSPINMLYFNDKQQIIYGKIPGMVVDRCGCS
Assay: Biacore SPR; ActRIIB-Fc captured by anti-hFc antibody, ligand injected

B1: ActRIIB(A24N 20-134)-hFc (Fc fusion, not shown: a dimerising Fc or GST)
chain: GRGENETRECIYYNANWELERTNQSGLERCEGEQDKRLHCYASWRNSSGTIELVKKGCWLDDFNCYDRQECVATEENPQVYFCCCEGNFCNERFTHLPEAGGPEVTYEPPPTAPT
B1 was tested, and the binding was “binds”.
